Earlier results on 3 compounds are cited in US11639483B2, “Macrocyclic musk lactones and uses thereof” (PHYTO TECH CORP., priority 2021, dated 2023).

For the data set the following is noted: biodegradability; cited from earlier work.

For `CC1COCc2cc3c(cc21)C(C)(C)C(C)C3(C)C` (stereo not drawn) [Galaxolide, galaxolide], the “% DEG IN READY TEST OECD 301B” value was 0%.

Consider `C[C@@H]1CCCCCCCCCCCCC(=O)C1` [MUSCONE, Muscone], for which the “% DEG IN READY TEST OECD 301B” value is 80%.

For `Cc1c([N+](=O)[O-])c(C)c([N+](=O)[O-])c(C(C)(C)C)c1[N+](=O)[O-]` [MUSK XYLENE], the “% DEG IN READY TEST OECD 301B” value is on record as 2%.
